Reference: the supplement of paper PMC12067093, “Discovery and optimisation of a covalent ligand for TRIM25 and its application to targeted protein ubiquitination” (Chemical Science, 2025)
Some of the results follow.

Chains of the proteins cited; added tags and fusions are not shown. Lines headed by an entry give the natural chain unless they say otherwise; changes in a name come on top.
UniProt P46934: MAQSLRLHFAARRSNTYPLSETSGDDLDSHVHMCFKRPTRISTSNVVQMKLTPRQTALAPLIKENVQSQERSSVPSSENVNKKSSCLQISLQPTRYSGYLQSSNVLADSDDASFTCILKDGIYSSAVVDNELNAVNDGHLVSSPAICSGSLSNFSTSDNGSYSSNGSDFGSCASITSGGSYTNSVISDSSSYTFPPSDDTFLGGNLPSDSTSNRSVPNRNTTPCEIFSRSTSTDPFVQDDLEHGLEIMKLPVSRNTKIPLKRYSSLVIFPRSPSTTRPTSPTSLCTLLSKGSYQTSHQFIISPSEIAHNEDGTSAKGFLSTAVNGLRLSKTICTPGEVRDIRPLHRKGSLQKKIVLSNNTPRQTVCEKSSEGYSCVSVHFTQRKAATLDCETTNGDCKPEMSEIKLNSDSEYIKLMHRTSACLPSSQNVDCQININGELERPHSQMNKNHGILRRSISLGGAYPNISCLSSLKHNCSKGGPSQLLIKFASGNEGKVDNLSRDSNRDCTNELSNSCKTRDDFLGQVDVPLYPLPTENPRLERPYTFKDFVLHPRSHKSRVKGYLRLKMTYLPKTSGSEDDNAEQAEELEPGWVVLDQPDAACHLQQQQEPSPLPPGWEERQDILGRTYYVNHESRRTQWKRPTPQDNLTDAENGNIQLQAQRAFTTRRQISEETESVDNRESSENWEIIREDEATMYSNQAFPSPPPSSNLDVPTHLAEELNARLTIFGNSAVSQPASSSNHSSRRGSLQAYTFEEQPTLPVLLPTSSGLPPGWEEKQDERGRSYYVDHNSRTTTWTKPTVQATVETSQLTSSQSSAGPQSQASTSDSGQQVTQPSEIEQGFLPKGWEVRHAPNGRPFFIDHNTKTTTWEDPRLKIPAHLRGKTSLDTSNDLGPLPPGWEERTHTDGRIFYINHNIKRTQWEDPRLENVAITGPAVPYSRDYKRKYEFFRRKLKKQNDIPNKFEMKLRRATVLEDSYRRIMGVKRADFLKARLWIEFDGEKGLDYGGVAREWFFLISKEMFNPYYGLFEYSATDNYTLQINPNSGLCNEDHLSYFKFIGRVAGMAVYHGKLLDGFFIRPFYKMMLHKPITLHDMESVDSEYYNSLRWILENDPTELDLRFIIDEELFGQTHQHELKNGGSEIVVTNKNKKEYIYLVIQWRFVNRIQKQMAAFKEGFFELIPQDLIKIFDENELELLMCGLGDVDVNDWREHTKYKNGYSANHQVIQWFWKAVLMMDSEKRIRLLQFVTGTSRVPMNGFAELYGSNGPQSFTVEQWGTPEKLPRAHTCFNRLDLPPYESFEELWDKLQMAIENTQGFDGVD
UniProt P49821, whole entry, looked up: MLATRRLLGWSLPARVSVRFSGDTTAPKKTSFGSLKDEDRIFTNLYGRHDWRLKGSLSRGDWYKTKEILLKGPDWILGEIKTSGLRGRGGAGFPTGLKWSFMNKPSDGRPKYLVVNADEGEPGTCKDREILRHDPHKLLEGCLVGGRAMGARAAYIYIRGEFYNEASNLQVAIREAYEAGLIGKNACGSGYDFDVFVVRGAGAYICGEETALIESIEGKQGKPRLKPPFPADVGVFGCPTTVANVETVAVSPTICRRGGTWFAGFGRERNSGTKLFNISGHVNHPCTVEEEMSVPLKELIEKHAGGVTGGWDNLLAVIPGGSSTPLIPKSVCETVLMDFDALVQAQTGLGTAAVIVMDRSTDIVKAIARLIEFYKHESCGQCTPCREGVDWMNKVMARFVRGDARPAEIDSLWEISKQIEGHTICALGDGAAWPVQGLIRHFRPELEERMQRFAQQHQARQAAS
UniProt Q9BYG3: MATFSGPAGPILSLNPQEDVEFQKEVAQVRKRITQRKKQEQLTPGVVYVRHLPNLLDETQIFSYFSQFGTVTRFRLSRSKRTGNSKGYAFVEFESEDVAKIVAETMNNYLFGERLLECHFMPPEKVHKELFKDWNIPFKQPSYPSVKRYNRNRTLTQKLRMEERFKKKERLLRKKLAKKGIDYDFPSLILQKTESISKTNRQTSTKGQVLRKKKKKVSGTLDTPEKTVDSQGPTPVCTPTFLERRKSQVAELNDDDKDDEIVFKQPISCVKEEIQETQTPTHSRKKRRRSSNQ
UniProt P28331, whole entry, looked up: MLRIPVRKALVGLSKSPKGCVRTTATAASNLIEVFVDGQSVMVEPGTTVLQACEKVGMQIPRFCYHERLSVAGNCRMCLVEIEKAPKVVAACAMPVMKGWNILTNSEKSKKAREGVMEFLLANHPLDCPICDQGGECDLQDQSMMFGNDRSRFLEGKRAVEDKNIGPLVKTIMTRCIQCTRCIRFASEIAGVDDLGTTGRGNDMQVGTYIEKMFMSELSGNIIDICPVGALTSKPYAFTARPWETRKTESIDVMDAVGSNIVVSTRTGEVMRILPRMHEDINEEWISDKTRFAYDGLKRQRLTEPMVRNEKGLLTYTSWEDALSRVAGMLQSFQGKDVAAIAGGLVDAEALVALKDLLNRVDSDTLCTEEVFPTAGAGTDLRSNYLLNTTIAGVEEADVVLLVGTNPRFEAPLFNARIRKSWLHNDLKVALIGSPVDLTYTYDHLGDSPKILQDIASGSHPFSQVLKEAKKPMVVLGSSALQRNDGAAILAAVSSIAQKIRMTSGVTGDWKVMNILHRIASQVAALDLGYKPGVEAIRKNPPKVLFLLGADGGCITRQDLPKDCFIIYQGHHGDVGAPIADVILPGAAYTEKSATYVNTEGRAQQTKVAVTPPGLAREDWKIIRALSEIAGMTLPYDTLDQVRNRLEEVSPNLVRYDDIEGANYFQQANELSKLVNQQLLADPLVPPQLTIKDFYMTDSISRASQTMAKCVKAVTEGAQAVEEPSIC
UniProt Q86X76: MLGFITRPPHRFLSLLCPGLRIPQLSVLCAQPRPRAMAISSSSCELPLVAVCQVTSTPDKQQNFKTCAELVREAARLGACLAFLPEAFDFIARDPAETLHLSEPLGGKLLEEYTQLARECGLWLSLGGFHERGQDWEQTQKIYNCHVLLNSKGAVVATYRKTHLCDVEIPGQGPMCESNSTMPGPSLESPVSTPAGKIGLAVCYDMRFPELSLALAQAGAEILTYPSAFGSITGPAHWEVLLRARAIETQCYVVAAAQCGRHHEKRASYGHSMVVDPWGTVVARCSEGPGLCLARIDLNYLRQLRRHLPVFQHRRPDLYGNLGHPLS
UniProt Q9Y221: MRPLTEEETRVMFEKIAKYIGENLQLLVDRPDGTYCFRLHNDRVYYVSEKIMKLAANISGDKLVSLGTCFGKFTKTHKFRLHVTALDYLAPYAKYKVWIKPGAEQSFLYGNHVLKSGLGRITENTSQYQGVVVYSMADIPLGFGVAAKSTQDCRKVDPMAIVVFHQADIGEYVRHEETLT
UniProt O14777: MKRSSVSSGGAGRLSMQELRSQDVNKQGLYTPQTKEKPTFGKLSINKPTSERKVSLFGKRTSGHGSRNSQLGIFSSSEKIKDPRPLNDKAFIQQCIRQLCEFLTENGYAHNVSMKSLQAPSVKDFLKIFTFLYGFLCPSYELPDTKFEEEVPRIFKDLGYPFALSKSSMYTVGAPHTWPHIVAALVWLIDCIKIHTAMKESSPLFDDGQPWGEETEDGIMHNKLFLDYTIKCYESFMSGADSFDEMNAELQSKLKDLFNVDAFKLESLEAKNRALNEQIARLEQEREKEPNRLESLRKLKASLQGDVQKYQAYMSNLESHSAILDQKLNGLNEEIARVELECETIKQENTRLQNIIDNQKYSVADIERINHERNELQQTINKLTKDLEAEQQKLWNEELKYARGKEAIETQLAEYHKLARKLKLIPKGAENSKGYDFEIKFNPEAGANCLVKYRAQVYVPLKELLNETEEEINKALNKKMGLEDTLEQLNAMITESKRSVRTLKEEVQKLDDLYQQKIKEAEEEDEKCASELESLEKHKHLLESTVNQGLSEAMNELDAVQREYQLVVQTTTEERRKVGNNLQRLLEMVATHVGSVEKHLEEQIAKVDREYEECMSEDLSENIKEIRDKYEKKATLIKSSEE
UniProt O60524: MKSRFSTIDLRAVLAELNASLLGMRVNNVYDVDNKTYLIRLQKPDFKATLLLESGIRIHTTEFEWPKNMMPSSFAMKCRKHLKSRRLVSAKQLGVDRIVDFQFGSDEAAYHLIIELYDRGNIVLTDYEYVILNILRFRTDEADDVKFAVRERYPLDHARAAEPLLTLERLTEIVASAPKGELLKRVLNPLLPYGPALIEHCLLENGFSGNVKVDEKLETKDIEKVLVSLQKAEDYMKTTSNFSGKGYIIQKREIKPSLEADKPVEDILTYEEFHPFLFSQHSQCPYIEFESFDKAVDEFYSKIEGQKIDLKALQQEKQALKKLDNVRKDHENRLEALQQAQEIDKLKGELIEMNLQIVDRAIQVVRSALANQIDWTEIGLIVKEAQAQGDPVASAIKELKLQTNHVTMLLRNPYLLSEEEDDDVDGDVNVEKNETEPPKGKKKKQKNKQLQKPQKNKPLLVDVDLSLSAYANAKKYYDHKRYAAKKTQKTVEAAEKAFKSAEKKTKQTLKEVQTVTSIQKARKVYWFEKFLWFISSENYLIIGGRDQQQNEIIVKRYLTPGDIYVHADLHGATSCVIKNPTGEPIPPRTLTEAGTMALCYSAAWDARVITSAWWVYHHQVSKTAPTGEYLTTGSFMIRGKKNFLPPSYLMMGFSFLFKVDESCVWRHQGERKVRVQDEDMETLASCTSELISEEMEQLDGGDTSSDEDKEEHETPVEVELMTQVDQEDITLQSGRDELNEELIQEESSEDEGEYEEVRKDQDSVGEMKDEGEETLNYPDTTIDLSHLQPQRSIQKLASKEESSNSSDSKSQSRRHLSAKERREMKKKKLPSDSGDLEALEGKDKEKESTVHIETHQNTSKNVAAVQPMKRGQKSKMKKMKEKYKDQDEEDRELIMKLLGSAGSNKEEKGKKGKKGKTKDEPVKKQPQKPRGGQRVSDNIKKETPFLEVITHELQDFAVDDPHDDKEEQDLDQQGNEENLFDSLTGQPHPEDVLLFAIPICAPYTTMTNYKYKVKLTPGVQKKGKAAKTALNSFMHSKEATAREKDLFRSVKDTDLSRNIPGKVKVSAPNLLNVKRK
UniProt Q9P032: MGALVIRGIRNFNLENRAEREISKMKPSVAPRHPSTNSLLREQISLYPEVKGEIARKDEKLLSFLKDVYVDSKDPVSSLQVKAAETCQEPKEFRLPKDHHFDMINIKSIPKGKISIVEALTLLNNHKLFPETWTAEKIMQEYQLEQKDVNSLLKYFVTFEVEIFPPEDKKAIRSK
UniProt Q12986: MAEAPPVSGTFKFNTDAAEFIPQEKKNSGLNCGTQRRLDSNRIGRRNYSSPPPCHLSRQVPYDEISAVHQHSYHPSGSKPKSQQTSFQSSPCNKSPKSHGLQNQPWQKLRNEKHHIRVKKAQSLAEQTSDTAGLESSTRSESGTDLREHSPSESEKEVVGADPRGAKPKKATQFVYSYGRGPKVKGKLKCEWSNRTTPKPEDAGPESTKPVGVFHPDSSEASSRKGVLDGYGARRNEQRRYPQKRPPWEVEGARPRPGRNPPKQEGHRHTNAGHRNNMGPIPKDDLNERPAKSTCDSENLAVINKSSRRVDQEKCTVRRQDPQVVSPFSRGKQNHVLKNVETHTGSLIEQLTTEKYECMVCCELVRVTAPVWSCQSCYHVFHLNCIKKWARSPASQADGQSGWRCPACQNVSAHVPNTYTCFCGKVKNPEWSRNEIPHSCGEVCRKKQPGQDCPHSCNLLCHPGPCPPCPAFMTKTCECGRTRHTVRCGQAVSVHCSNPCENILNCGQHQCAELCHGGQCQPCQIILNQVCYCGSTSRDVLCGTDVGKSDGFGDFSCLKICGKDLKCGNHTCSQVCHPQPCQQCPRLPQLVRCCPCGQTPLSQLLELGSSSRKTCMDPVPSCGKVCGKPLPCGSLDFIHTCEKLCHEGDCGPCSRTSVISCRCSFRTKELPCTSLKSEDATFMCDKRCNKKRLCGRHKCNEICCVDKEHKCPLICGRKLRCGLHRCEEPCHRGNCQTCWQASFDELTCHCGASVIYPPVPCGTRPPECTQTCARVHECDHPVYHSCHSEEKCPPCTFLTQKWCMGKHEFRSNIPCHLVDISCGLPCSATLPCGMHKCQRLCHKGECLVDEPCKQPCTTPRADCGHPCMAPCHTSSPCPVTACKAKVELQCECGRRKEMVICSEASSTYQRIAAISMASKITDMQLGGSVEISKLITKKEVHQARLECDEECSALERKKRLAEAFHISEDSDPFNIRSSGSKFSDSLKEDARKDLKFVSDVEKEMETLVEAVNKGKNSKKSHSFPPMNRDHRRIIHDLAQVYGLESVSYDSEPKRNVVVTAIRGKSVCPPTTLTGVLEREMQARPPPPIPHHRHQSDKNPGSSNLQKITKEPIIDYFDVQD
UniProt Q9NX14, whole entry, looked up: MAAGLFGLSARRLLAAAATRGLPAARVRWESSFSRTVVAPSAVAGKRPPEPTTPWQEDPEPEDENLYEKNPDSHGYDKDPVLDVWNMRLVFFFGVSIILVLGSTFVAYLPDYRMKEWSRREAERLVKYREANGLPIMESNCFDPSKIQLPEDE

compound: Cc1cc(ccc1-c1ccccc1)C(=O)N1CCCN(CC1)C(=O)CCl [compound 10]; test: probe-labelled cysteine peptide fold change vs DMSO (competition) (log2 fold change); higher = less target engagement (more negative = stronger competition); details: 10 µM; THP-1; incubation time: 4 h
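Also: competitive profiling in live THP-1 cells: cysteine peptides tagged with an iodoacetamide desthiobiotin (IA-DTB) probe, intensity after compound treatment relative to DMSO-treated cells.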

Target | probe-labelled cysteine peptide fold change
NDUFA10_O95299_183_QCVDHYNEVK (UniProt O95299) | -0.0749
NHP2_Q9NX24_98_GIMVLAGDTLPIEVYCHLPVMCEDR (UniProt Q9NX24) | -0.00823
NHP2_Q9NX24_18_IKADPDGPEAQAEACSGER (UniProt Q9NX24) | -0.258
NIPSNAP2_O75323_108_HYPCTLVGTWNTWYGEQDQAVHLWR (UniProt O75323) | 0.0481
NEDD4_P46934_1197_IFDENELELLMCGLGDVDVNDWREHTK (UniProt P46934) | -0.146
NDUFV1_P49821_425_QIEGHTICALGDGAAWPVQGLIR (UniProt P49821) | 0.563
NIFK_Q9BYG3_269_QPISCVK (UniProt Q9BYG3) | 0.234
NDUFS1_P28331_727_AVTEGAQAVEEPSIC (UniProt P28331) | -0.199
NIPBL_Q6KC79_2374_MSYQVQQAINTCLKDPVR (UniProt Q6KC79) | -0.126
NIT1_Q86X76_203_IGLAVCYDMR (UniProt Q86X76) | -0.0753
NIT2_Q9NQR4_170_GCQLLVYPGAFNLTTGPAHWELLQR (UniProt Q9NQR4) | 0.0882
NIP7_Q9Y221_36_YIGENLQLLVDRPDGTYCFR (UniProt Q9Y221) | 0.0294
NDC80_O14777_100_QLCEFLTENGYAHNVSMK (UniProt O14777) | 0.0109
NCOA7_Q8NI08_487_GALDLETCEK (UniProt Q8NI08) | -0.28
NDUFS1_P28331_75_LSVAGNCR (UniProt P28331) | -0.0766
NFKBIE_O00221_457_GLMGISSTLCK (UniProt O00221) | 0.109
NCOR2_Q9Y618_1503_ACYEESLK (UniProt Q9Y618) | -0.221
NEDD4_P46934-4_4_ATCAVEVFGLLEDEENSR (UniProt P46934) | -0.332
NEMF_O60524_663_VDESCVWR (UniProt O60524) | -0.358
NCOA3_Q9Y6Q9_716_DTSSITSCGDGNVVK (UniProt Q9Y6Q9) | -0.387

Target | probe-labelled cysteine peptide fold change
NGLY1_Q96IV0_286_EVEDHYCDACQFSNR (UniProt Q96IV0) | 0.08
NFIC_P08651_157_AAQCGHPVLCVQPHHIGVAVK (UniProt P08651) | -0.126
NELFCD_Q8IXH7_461_YFQLQTDHTPVHLALLDEISTCHQLLHPQVLQLLVK (UniProt Q8IXH7) | 0.128
NIPBL_Q6KC79_1841_FVLCRPQLAEQYYDMLIER (UniProt Q6KC79) | -0.0227
NID1_P14543_679_EGSPDALQNPCYIGTHGCDTNAACRPGPR (UniProt P14543) | 0.0439
NDUFAF4_Q9P032_87_AAETCQEPK (UniProt Q9P032) | -0.265
NIT1_Q86X76_292_CSEGPGLCLAR (UniProt Q86X76) | 0.217
NID1_P14543_403_HQCSVHAECR (UniProt P14543) | -0.182
NCOA7_Q8NI08_618_EALDSSLESTLDNSCQGAQMDNK (UniProt Q8NI08) | -0.0625
NIT1_Q86X76_67_TCAELVR (UniProt Q86X76) | 0.0195
NFX1_Q12986_901_EMVICSEASSTYQR (UniProt Q12986) | -0.0139
NDUFB11_Q9NX14_141_YREANGLPIMESNCFDPSK (UniProt Q9NX14) | -0.274
NKRF_O15226_424_SSQCHTGSSPR (UniProt O15226) | 0.0137
NCOA5_Q9HCD5_301_YKNECR (UniProt Q9HCD5) | 0.0517
NEU1_Q99519_230_DGVFCLLSDDHGASWR (UniProt Q99519) | 0.14
NCL_P19338_543_EALNSCNKR (UniProt P19338) | 0.0585
NCKIPSD_Q9NZQ3_700_ILNEEETSPQCQMDR (UniProt Q9NZQ3) | 0.0808
NFKBIE_O00221_438_MLNGCTPLHLAAGR (UniProt O00221) | -0.0872
NFKB1_P19838_61_YVCEGPSHGGLPGASSEK (UniProt P19838) | 0.0894

same assay, conditions: 50 µM; THP-1; incubation time: 4 h

Target | probe-labelled cysteine peptide fold change
NDUFA10_O95299_183_QCVDHYNEVK (UniProt O95299) | -0.128
NHP2_Q9NX24_98_GIMVLAGDTLPIEVYCHLPVMCEDR (UniProt Q9NX24) | 0.242
NHP2_Q9NX24_18_IKADPDGPEAQAEACSGER (UniProt Q9NX24) | -0.496
NIPSNAP2_O75323_108_HYPCTLVGTWNTWYGEQDQAVHLWR (UniProt O75323) | -0.0135
NEDD4_P46934_1197_IFDENELELLMCGLGDVDVNDWREHTK (UniProt P46934) | -0.184
NDUFV1_P49821_425_QIEGHTICALGDGAAWPVQGLIR (UniProt P49821) | 0.135
NIFK_Q9BYG3_269_QPISCVK (UniProt Q9BYG3) | -0.0647
NDUFS1_P28331_727_AVTEGAQAVEEPSIC (UniProt P28331) | 0.0438
NIPBL_Q6KC79_2374_MSYQVQQAINTCLKDPVR (UniProt Q6KC79) | -0.561
NIT1_Q86X76_203_IGLAVCYDMR (UniProt Q86X76) | -0.95
NIT2_Q9NQR4_170_GCQLLVYPGAFNLTTGPAHWELLQR (UniProt Q9NQR4) | -0.0627
NIP7_Q9Y221_36_YIGENLQLLVDRPDGTYCFR (UniProt Q9Y221) | 0.155
NDC80_O14777_100_QLCEFLTENGYAHNVSMK (UniProt O14777) | -0.136
NCOA7_Q8NI08_487_GALDLETCEK (UniProt Q8NI08) | -0.107
NDUFS1_P28331_75_LSVAGNCR (UniProt P28331) | -0.243
NFKBIE_O00221_457_GLMGISSTLCK (UniProt O00221) | -0.56
NCOR2_Q9Y618_1503_ACYEESLK (UniProt Q9Y618) | -0.21
NEDD4_P46934-4_4_ATCAVEVFGLLEDEENSR (UniProt P46934) | -0.281
NEMF_O60524_663_VDESCVWR (UniProt O60524) | 0.713
NCOA3_Q9Y6Q9_716_DTSSITSCGDGNVVK (UniProt Q9Y6Q9) | -0.458

Target | probe-labelled cysteine peptide fold change
NGLY1_Q96IV0_286_EVEDHYCDACQFSNR (UniProt Q96IV0) | -0.0594
NFIC_P08651_157_AAQCGHPVLCVQPHHIGVAVK (UniProt P08651) | -0.151
NELFCD_Q8IXH7_461_YFQLQTDHTPVHLALLDEISTCHQLLHPQVLQLLVK (UniProt Q8IXH7) | 0.201
NIPBL_Q6KC79_1841_FVLCRPQLAEQYYDMLIER (UniProt Q6KC79) | 0.0567
NID1_P14543_679_EGSPDALQNPCYIGTHGCDTNAACRPGPR (UniProt P14543) | 0.00488
NDUFAF4_Q9P032_87_AAETCQEPK (UniProt Q9P032) | -0.321
NIT1_Q86X76_292_CSEGPGLCLAR (UniProt Q86X76) | -0.0225
NID1_P14543_403_HQCSVHAECR (UniProt P14543) | -0.302
NCOA7_Q8NI08_618_EALDSSLESTLDNSCQGAQMDNK (UniProt Q8NI08) | -0.0994
NIT1_Q86X76_67_TCAELVR (UniProt Q86X76) | 0.121
NFX1_Q12986_901_EMVICSEASSTYQR (UniProt Q12986) | -0.364
NDUFB11_Q9NX14_141_YREANGLPIMESNCFDPSK (UniProt Q9NX14) | -0.325
NKRF_O15226_424_SSQCHTGSSPR (UniProt O15226) | -0.397
NCOA5_Q9HCD5_301_YKNECR (UniProt Q9HCD5) | -0.252
NEU1_Q99519_230_DGVFCLLSDDHGASWR (UniProt Q99519) | 0.0556
NCL_P19338_543_EALNSCNKR (UniProt P19338) | -0.113
NCKIPSD_Q9NZQ3_700_ILNEEETSPQCQMDR (UniProt Q9NZQ3) | 0.139
NFKBIE_O00221_438_MLNGCTPLHLAAGR (UniProt O00221) | -0.217
NFKB1_P19838_61_YVCEGPSHGGLPGASSEK (UniProt P19838) | -0.824
